Article doi:10.1101/2024.09.11.24313360
Like-named read-outs stand apart in the source and are kept apart here. These are yes or no findings as the source states them, for the method shown. Binding seen in cells or lysates may run through a third protein. Some results given as binding are weak or reduced against the parent protein; the word gives no strength.

Tests used:
Experiment in all cases: co-IP
[1] = target: T1, TLR8 (human) (UniProt Q9NR97)
T1 sequence: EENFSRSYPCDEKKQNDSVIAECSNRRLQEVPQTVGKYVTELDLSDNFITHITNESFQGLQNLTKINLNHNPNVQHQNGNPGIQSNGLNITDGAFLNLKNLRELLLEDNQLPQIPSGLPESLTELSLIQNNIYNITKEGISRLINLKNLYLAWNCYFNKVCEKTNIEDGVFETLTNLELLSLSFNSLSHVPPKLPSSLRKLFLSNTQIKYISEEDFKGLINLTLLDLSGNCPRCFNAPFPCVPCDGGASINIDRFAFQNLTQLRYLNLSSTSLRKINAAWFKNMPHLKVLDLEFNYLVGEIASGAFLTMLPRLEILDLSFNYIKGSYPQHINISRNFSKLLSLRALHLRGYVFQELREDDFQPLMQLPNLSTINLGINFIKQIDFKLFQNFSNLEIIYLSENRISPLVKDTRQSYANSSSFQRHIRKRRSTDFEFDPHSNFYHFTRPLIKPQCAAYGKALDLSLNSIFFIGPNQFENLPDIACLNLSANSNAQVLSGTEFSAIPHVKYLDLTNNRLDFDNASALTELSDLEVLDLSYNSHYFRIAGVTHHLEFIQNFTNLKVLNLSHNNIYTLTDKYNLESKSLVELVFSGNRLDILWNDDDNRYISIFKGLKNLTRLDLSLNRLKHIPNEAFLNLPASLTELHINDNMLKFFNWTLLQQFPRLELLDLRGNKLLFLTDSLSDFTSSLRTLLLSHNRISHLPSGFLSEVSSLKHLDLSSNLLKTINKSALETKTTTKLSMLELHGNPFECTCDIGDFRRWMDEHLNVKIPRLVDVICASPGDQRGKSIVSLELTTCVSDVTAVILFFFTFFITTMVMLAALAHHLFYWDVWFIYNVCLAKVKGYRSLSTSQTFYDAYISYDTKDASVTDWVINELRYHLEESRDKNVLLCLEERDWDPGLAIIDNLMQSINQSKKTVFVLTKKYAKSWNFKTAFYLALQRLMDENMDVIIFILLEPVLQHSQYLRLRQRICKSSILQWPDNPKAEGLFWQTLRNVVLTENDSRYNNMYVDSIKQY

[2] = target: T2, TLR7 (human) (UniProt Q9NYK1)
T2 sequence: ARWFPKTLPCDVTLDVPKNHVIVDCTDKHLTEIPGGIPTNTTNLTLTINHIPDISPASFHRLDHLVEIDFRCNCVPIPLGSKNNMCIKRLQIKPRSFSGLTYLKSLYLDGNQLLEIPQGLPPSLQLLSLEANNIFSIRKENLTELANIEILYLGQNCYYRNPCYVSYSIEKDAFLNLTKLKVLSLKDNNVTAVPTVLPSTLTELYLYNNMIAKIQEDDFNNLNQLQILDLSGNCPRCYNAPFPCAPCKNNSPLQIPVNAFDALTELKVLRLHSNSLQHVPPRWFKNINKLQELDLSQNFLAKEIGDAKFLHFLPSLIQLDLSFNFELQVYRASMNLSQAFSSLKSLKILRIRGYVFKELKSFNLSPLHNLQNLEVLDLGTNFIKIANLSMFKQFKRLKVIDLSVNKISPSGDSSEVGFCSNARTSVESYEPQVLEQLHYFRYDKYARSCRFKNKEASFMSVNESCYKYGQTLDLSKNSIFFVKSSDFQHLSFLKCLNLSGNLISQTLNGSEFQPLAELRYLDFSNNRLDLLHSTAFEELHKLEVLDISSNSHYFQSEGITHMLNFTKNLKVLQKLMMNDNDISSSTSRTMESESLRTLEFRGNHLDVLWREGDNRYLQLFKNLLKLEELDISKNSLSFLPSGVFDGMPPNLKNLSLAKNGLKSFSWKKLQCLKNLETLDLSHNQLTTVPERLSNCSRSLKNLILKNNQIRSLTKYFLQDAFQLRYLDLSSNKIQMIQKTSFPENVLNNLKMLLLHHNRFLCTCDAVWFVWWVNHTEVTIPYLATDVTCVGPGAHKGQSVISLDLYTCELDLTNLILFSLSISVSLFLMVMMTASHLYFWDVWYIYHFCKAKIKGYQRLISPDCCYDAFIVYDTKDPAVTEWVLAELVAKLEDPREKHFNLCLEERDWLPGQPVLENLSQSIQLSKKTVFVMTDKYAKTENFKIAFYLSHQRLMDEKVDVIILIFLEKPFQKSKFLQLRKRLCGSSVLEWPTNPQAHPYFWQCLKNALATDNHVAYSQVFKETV

[3] = target: T1, TLR8 (human); remark: listed apart in the source

Measured: binding

B1: wild-type UNC93B1 (protein, UniProt Q9H1C4 1-597)
chain: MEAEPPLYPMAGAAGPQGDEDLLGVPDGPEAPLDELVGAYPNYNEEEEERRYYRRKRLGVLKNVLAASAGGMLTYGVYLGLLQMQLILHYDETYREVKYGNMGLPDIDSKMLMGINVTPIAALLYTPVLIRFFGTKWMMFLAVGIYALFVSTNYWERYYTLVPSAVALGMAIVPLWASMGNYITRMAQKYHEYSHYKEQDGQGMKQRPPRGSHAPYLLVFQAIFYSFFHLSFACAQLPMIYFLNHYLYDLNHTLYNVQSCGTNSHGILSGFNKTVLRTLPRSGNLIVVESVLMAVAFLAMLLVLGLCGAAYRPTEEIDLRSVGWGNIFQLPFKHVRDYRLRHLVPFFIYSGFEVLFACTGIALGYGVCSVGLERLAYLLVAYSLGASAASLLGLLGLWLPRPVPLVAGAGVHLLLTFILFFWAPVPRVLQHSWILYVAAALWGVGSALNKTGLSTLLGILYEDKERQDFIFTIYHWWQAVAIFTVYLGSSLHMKAKLAVLLVTLVAAAVSYLRMEQKLRRGVAPRQPRIPRPQHKVRGYRYLEEDNSDESDAEGEHGDGAEEEAPPAGPRPGPEPAGLGRRPCPYEQAQGGDGPEEQ
binds: [1] | [2] | [3]
